For 9 molecules, binding results are on record in article PMC7888682.

Amino acid sequences for entries named in this document (tags omitted).
UniProt A2A432: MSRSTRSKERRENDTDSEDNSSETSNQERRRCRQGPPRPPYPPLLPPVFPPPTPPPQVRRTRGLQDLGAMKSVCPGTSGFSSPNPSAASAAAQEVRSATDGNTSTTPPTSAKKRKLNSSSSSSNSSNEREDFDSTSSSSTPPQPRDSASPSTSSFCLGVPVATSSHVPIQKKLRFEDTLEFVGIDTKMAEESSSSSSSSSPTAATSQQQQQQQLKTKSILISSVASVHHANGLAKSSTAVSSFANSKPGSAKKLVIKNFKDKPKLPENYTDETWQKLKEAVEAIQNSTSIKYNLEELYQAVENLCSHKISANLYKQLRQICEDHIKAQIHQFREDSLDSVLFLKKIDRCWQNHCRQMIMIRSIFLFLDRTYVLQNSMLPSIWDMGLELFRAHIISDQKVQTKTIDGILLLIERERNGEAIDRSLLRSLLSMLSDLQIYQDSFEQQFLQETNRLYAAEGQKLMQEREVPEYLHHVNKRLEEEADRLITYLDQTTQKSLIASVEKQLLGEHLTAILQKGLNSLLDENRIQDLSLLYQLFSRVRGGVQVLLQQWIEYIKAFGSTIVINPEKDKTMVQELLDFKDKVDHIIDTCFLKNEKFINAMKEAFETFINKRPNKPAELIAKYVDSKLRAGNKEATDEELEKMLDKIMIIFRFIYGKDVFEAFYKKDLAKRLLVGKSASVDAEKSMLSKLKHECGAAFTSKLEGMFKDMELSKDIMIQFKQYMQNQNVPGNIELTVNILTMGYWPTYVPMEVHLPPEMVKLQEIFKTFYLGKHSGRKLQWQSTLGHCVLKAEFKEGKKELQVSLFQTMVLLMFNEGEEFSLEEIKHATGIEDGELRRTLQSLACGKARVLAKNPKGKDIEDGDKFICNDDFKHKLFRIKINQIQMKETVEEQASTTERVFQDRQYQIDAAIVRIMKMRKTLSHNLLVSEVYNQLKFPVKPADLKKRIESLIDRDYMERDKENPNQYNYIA
UniProt Q80TR8: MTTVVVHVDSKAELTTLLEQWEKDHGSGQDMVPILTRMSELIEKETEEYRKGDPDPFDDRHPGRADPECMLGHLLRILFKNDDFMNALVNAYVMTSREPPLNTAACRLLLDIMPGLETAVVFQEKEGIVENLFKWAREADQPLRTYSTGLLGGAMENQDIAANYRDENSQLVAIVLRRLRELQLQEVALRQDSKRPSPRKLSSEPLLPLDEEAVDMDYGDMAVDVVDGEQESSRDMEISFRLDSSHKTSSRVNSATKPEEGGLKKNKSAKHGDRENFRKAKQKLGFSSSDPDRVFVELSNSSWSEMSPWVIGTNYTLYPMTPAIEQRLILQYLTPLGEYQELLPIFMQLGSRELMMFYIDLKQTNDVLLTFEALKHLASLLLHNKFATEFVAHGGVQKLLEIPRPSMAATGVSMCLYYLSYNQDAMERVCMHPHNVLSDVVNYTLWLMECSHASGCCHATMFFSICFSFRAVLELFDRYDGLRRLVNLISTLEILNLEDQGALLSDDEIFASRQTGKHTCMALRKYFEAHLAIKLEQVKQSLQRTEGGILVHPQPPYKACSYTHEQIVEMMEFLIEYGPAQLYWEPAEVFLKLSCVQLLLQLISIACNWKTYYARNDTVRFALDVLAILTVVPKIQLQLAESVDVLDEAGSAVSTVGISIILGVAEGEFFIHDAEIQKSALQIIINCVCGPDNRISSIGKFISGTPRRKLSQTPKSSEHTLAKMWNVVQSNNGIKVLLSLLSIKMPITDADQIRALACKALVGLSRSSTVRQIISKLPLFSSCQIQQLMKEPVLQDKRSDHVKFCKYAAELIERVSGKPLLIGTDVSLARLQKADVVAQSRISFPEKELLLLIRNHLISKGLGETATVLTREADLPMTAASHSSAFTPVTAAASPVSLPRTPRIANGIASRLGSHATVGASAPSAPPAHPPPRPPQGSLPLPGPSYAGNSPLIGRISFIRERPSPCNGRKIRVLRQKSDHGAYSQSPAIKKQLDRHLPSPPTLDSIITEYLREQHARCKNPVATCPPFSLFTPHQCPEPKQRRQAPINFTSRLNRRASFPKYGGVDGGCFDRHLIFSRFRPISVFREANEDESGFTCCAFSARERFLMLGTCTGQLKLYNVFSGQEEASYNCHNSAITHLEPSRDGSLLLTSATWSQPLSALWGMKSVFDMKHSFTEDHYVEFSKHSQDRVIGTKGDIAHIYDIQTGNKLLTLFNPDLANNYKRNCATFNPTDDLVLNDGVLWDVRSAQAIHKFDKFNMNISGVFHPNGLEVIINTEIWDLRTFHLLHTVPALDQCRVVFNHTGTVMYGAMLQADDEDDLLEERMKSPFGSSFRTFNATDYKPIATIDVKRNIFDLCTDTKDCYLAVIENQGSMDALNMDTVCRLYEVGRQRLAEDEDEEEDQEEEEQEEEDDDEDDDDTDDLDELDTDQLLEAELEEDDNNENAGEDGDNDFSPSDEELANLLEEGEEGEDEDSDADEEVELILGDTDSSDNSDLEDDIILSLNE
UniProt P70388: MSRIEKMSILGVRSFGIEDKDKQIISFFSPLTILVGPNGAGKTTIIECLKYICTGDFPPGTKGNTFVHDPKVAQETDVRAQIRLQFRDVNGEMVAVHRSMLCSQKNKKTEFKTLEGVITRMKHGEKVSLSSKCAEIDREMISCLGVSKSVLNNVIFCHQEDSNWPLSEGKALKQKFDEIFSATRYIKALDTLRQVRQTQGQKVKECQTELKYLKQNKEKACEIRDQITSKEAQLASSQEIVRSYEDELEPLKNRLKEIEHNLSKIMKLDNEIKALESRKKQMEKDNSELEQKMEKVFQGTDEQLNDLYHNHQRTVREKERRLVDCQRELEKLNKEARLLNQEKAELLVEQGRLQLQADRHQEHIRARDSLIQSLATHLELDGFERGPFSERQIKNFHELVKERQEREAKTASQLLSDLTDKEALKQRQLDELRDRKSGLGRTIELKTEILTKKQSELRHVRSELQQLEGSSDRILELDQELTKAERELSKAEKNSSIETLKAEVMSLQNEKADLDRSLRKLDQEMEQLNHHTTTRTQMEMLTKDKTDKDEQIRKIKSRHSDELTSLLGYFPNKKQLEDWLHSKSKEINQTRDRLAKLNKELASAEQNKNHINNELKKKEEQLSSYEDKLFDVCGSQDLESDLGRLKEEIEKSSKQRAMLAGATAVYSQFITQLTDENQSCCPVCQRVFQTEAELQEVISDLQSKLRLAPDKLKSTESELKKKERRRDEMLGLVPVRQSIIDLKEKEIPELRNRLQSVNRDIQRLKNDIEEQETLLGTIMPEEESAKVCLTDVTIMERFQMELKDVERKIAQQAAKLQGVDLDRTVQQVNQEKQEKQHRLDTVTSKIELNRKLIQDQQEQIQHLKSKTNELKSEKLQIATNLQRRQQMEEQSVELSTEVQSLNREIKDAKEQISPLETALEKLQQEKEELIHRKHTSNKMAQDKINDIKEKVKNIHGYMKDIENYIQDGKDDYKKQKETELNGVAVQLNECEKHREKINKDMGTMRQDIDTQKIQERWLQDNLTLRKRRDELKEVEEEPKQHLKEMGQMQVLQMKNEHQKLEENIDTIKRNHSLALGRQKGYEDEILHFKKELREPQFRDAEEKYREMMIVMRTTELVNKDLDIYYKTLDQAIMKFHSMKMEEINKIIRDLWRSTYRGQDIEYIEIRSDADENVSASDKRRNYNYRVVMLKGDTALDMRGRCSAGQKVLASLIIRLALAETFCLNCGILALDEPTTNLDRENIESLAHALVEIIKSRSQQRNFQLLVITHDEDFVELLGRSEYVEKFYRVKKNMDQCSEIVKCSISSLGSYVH
UniProt O88543: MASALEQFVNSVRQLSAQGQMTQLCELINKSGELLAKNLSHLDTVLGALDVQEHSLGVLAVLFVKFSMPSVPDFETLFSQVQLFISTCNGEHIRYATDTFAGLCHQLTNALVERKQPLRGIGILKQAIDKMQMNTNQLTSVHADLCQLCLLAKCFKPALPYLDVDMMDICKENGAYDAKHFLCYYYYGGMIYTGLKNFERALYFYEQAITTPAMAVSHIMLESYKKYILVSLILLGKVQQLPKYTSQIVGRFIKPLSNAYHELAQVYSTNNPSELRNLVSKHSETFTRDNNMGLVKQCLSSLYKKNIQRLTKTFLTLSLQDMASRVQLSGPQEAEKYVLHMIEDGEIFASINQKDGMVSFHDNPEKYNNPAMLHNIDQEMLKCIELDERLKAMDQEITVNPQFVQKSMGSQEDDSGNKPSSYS
UniProt P97868: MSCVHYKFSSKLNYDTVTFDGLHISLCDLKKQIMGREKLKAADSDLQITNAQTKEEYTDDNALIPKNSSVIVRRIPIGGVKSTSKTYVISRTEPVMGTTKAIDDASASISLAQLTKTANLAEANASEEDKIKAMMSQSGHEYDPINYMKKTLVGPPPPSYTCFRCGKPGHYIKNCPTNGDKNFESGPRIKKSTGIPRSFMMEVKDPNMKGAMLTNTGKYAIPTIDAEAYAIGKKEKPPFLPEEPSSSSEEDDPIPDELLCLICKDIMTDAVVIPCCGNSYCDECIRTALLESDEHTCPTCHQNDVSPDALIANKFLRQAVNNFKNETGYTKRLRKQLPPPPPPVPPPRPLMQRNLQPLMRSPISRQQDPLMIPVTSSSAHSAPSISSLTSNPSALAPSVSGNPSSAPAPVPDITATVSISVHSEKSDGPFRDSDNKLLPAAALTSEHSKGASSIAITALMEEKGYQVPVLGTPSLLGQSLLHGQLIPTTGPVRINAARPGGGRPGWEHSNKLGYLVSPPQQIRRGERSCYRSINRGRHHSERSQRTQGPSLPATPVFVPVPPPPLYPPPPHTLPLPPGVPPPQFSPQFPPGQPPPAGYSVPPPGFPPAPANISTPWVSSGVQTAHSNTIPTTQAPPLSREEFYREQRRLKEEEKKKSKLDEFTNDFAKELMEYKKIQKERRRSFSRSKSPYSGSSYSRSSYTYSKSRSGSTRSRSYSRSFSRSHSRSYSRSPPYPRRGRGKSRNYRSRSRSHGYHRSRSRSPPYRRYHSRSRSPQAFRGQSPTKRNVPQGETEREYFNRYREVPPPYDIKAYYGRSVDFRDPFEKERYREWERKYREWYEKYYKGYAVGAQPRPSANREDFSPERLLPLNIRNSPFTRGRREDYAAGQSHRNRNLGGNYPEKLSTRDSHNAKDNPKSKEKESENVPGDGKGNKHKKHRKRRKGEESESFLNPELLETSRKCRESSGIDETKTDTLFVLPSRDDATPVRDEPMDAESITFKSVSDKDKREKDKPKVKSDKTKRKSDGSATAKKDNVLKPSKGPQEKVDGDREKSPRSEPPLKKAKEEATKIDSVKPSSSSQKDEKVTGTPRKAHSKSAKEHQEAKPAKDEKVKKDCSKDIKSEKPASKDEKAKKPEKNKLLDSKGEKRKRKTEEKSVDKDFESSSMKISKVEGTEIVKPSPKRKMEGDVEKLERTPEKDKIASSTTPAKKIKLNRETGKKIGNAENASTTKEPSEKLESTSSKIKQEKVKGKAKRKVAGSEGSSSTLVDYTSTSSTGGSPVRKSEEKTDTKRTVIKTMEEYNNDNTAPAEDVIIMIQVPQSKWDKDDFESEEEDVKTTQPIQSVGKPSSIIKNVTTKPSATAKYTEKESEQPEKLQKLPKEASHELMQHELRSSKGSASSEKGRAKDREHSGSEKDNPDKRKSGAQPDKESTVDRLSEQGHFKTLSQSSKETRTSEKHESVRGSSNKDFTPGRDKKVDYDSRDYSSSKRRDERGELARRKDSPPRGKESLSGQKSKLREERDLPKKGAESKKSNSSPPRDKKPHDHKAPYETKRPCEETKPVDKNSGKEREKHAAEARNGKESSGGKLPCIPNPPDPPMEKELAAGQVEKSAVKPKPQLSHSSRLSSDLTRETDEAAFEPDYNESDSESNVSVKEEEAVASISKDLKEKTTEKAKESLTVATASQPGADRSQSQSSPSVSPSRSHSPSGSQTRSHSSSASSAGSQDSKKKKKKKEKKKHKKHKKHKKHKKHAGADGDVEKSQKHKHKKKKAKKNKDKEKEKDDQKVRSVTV

The target of assay [1] is Cullin-4b (mouse (endogenous in CD4+ T cells)) (UniProt A2A432). Briefly: affinity purification with mass spectrometry; endogenous IP from mouse CD4+ T cells activated with anti-CD3/CD28 for 40 h; lysate in 1% Triton-X, 50 mM Tris pH 8, 100 mM NaCl; Dynabeads with Cul4b antibody, DCAF1 antibody or rabbit IgG, overnight in cold room; 4 washes PBS-Tween 0.2%; LC-MS/MS.
Assay [2] concerns the target Vprbp (DCAF1) (mouse (endogenous in CD4+ T cells)) (UniProt Q80TR8). The description is as above.

These are yes or no findings as the source states them, for the method shown. Binding seen in cells or lysates may run through a third protein. These calls come from enrichment with a bait or labelling near it, and not all partners need be listed.

For the molecule RAD50 (from UniProt P70388 1-1312), the binding entry in assay [1] and in assay [2] was “binds” in each case.

COPS3 (from UniProt O88543 1-423): the binding entry in assay [1] and in assay [2] was “binds” in each case.

Regarding “Vprbp (DCAF1) (from UniProt Q80TR8 1-1506)”, the binding result in assay [1] is given as “binds”.

Consider RBBP6 (from UniProt P97868 1-1790), for which the binding result in assay [1] and in assay [2] was “binds” throughout.

B1: Top1 (protein, UniProt Q04750 1-767)
chain: MSGDHLHNDSQIEADFRLNDSHKHKDKHKDREHRHKEHKKDKDKDREKSKHSNSEHKDSEKKHKEKEKTKHKDGSSEKHKDKHKDRDKERRKEEKIRAAGDAKIKKEKENGFSSPPRIKDEPEDDGYFAPPKEDIKPLKRLRDEDDADYKPKKIKTEDIKKEKKRKSEEEEDGKLKKPKNKDKDKKVAEPDNKKKKPKKEEEQKWKWWEEERYPEGIKWKFLEHKGPVFAPPYEPLPESVKFYYDGKVMKLSPKAEEVATFFAKMLDHEYTTKEIFRKNFFKDWRKEMTNDEKNTITNLSKCDFTQMSQYFKAQSEARKQMSKEEKLKIKEENEKLLKEYGFCVMDNHRERIANFKIEPPGLFRGRGNHPKMGMLKRRIMPEDIIINCSKDAKVPSPPPGHKWKEVRHDNKVTWLVSWTENIQGSIKYIMLNPSSRIKGEKDWQKYETARRLKKCVDKIRNQYREDWKSKEMKVRQRAVALYFIDKLALRAGNEKEEGETADTVGCCSLRVEHINLHPELDGQEYVVEFDFPGKDSIRYYNKVPVEKRVFKNLQLFMENKQPEDDLFDRLNTGILNKHLQDLMEGLTAKVFRTYNASITLQQQLKELTAPDENVPAKILSYNRANRAVAILCNHQRAPPKTFEKSMMNLQSKIDAKKDQLADARRDLKSAKADAKVMKDAKTKKVVESKKKAVQRLEEQLMKLEVQATDREENKQIALGTSKLNYLDPRITVAWCKKWGVPIEKIYNKTQREKFAWAIDMTDEDYEF
As for B1, the binding entry in assay [1] and in assay [2] was “binds” throughout.

B2: SMC1A (protein, UniProt Q9CU62 1-1233)
chain: MGFLKLIEIENFKSYKGRQIIGPFQRFTAIIGPNGSGKSNLMDAISFVLGEKTSNLRVKTLRDLIHGAPVGKPAANRAFVSMVYSEEGAEDRTFARVIVGGSSEYKINNKVVQLHEYSEELEKLGILIKARNFLVFQGAVESIAMKNPKERTALFEEISRSGELAQEYDKRKKEMVKAEEDTQFNYHRKKNIAAERKEAKQEKEEADRYQRLKDEVVRAQVQLQLFKLYHNEVEIEKLNKELASKNKEIEKDKKRMDKVEDELKEKKKELGKMMREQQQIEKEIKEKDSELNQKRPQYIKAKENTSHKIKKLEAAKKSLQNAQKHYKKRKGDMDELEKEMLSVEKARQEFEERMEEESQSQGRDLTLEENQVKKYHRLKEEASKRAATLAQELEKFNRDQKADQDRLDLEERKKVETEAKIKQKLREIEENQKRIEKLEEYITTSKQSLEEQKKLEGELTEEVEMAKRRIDEINKELNQVMEQLGDARIDRQESSRQQRKAEIMESIKRLYPGSVYGRLIDLCQPTQKKYQIAVTKVLGKNMDAIIVDSEKTGRDCIQYIKEQRGEPETFLPLDYLEVKPTDEKLRELKGAKLVIDVIRYEPPHIKKALQYACGNALVCDNVEDARRIAFGGHQRHKTVALDGTLFQKSGVISGGASDLKAKARRWDEKAVDKLKEKKERLTEELKEQMKAKRKEAELRQVQSQAHGLQMRLKYSQSDLEQTKTRHLALNLQEKSKLESELANFGPRINDIKRIIQSREREMKDLKEKMNQVEDEVFEEFCREIGVRNIREFEEEKVKRQNEIAKKRLEFENQKTRLGIQLDFEKNQLKEDQDKVHMWEQTVKKDENEIEKLKKEEQRHMKIIDETMAQLQDLKNQHLAKKSEVNDKNHEMEEIRKKLGGANKEMTHLQKEVTAIETKLEQKRSDRHNLLQACKMQDIKLPLSKGTMDDISQEEGSSQGEESVSGSQRTSSIYAREALIEIDYGDLCEDLKDAQAEEEIKQEMNTLQQKLNEQQSVLQRIAAPNMKAMEKLESVRDKFQETSDEFEAARKRAKKAKQAFEQIKKERFDRFNACFESVATNIDEIYKALSRNSSAQAFLGPENPEEPYLDGINYNCVAPGKRFRPMDNLSGGEKTVAALALLFAIHSYKPAPFFVLDEIDAALDNTNIGKVANYIKEQSTCNFQAIVISLKEEFYTKAESLIGVYPEQGDCVISKVLTFDLTKYPDANPNPNEQ
As to B2, the binding result in assay [1] and in assay [2] was “binds” each time.

B3: DDB2 (protein, UniProt Q99J79 1-432)
chain: MAPKKCPETQKSPDVAVLLRSKSRRGPQELEPEAKKLRVQGPVSSRTCESCCLLAELSSLQIPSRSSSIVRDLYQHKLGKATWSSLQQGLQKSFLHSLASYQVFRKAAPFDRRTTSLAWHPTHPSTLAVGSKGGDIMIWNFGIKDKPIFLKGIGAGGSITGLKFNHLNTNQFFASSMEGTTRLQDFKGNILRVYTSSNSCKVWFCSLDVSAKSRVVVTGDNMGHVILLSTDGKELWNLRMHKKKVAHVALNPCCDWLLATASIDQTVKIWDLRQIKGKDSFLYSLPHRHPVNAACFSPDGARLLTTDQNNEIRVYSASQWDSPLNLISHPHRHFQHLTPIKATWHSRHNLIVVGRYPDPNLKSCVPYELRTIDVFDGSSGKMMCQLYDPGYSGITSLNEFNPMGDTLASTMGYHILIWSQEEDGSQKDHERL
Regarding B3, the binding result in assay [1] is “binds”.

B4: MRE11A (protein, UniProt Q61216 1-706)
chain: MSPTDPLDDEDTFKILVATDIHLGFMEKDAVRGNDTFVTFDEILRLALENEVDFILLGGDLFHENKPSRKTLHSCLELLRKYCMGDRPVQFEVISDQSVNFGFSKFPWVNYQDGNLNISIPVFSIHGNHDDPTGADALCALDVLSCAGFVNHFGRSMSVEKVDISPVLLQKGSTKLALYGLGSIPDERLYRMFVNKKVTMLRPKEDENSWFNLFVIHQNRSKHGNTNFIPEQFLDDFIDLVIWGHEHECKIGPIKNEQQLFYVSQPGSSVVTSLSPGEAVKKHVGLLRIKGRKMNMQKLPLRTVRRFFIEDVVLANHPNLFNPDNPKVTQAIQSFCLEKIEEMLDSAERERLGNPQQPGKPLIRLRVDYSGGFEPFNVLRFSQKFVDRVANPKDVIHFFRHREQKGKTGEEINFGMLITKPASEGATLRVEDLVKQYFQTAEKNVQLSLLTERGMGEAVQEFVDKEEKDAIEELVKYQLEKTQRFLKERHIDALEDKIDEEVRRFRESRQRNTNEEDDEVREAMSRARALRSQSETSTSAFSAEDLSFDTSEQTANDSDDSLSAVPSRGRGRGRGRRGARGQSSAPRGGSQRGRDTGLEITTRGRSSKATSSTSRNMSIIDAFRSTRQQPSRNVAPKNYSETIEVDDSDEDDIFPTNSRADQRWSGTTSSKRMSQSQTAKGVDFESDEDDDDDPFMSSSCPRRNRR
As for B4, the binding result in assay [1] and in assay [2] was “binds” in each case.

B5: NBS1 (protein, UniProt Q9R207 1-751)
chain: MWKLLPAAGAAPGEPYRLLAGVEYVVGRKNCGILIENDQSISRNHAVLTVNFPVTSLSQTDEIPTLTIKDNSKYGTFVNEEKMQTGLSCTLKTGDRVTFGVFESKFRVEYEPLVVCSSCLDVSGKTVLNQAILQLGGLTANNWTEECTHLVMSAVKVTIKTICALICGRPIIKPEYFSEFLKAVESKKQPPDIESFYPPIDEPAIGSKSVDLSGRHERKQIFKGKTFVFLNAKQHKKLSSAVAFGGGEARLMAEDDEEEQSFFSAPGTCVVDVGITNTQLIISHSQKKWIHLIMDTLQRNGLRPIPEAEIGLAVIFMTTENYCNPQGQPCTELKTTTPGPSLSQVLSANGKIIPSAPVNMTTYVADTESEPADTCMPLSERPEEVKIPGLEQSSRKLSQETFNIKEAPKPSSKANNVASDTLVRGKTPSYQLSPMKFPVANKNKDWTSQQQQNSIKNYFQPCTRKRERDEDNPELSSCKSSRMELSCSLLEQTQPAGPSLWKSKEHQSQNATLDREADTSSVGGMDIELNRKSPDRKPLPTETLRPRKRKDVDLATEEEVLEELLRSTKPELAVQVKVEKQEADDTIRKKPRMDAERNRPLNGGSEPESNSALQEDEREKKDELQTESWSTKHEIANSDGLQDSSEELPRKLLLTEFRSLVVSNHNSTSRNLCVNECGPLKNFKKFKKATFPGAGKLPHIIGGSDLVGHHARKNTELEEWLKQEMEVQKQQAKEESLADDLFRYNPNVKRR
Regarding B5, in assay [1], the binding entry was “binds”.
